{"source": "paper doi:10.1101/296517", "key": {"[1]": {"biological_target": "giantin (human (endogenous in HeLa, LNCaP, PC-3, liver tissue)) (UniProt Q14789)", "assay": "co-IP"}, "[2]": {"biological_target": "giantin (human (endogenous in HeLa, LNCaP, PC-3, liver tissue)) (UniProt Q14789)", "assay": "co-IP", "remark": "listed apart in the source"}, "[3]": {"biological_target": "T1, recombinant human N-terminal GST-giantin fusion peptide (3-92 aa) (human) (UniProt Q14789)", "T1 sequence": "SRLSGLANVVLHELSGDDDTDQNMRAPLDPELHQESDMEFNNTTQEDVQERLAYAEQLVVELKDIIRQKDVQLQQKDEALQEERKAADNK", "assay": "pull-down"}}, "note": "Read-outs that look alike come from different tables or passages of the source. Results are given in words; binding and its absence hold for the method and conditions named. In cells and extracts the contact can be indirect. Some binding calls cover weakened binding; strength is not graded here. Tags and fused reporters may be left off the sequences shown."}
{"binder": "mannosyl (alpha-1,3-)-glycoprotein beta-1,2-N-acetylglucosaminyltransferase (MGAT1) (enzyme, UniProt P26572 1-445) MLKKQSAGLVLWGAILFVAWNALLLLFFWTRPAPGRPPSVSALDGDPASLTREVIRLAQDAEVELERQRGLLQQIGDALSSQRGRVPTAAPPAQPRVPVTPAPAVIPILVIACDRSTVRRCLDKLLHYRPSAELFPIIVSQDCGHEETAQAIASYGSAVTHIRQPDLSSIAVPPDHRKFQGYYKIARHYRWALGQVFRQFRFPAAVVVEDDLEVAPDFFEYFRATYPLLKADPSLWCVSAWNDNGKEQMVDASRPELLYRTDFFPGLGWLLLAELWAELEPKWPKAFWDDWMRRPEQRQGRACIRPEISRTMTFGRKGVSHGQFFDQHLKFIKLNQQFVHFTQLDLSYLQREAYDRDFLARVYGAPQLQVEKVRTNDRKELGEVRVQYTGRDSFKAFAKALGVMDDLKSGVPRAGYRGIVTFQFRGRRVHLAPPLTWEGYDPSWN", "values": [{"measurement": "binding", "setting": "[1]", "result": "binds weakly"}, {"measurement": "binding", "setting": "[2]", "result": "binds"}, {"measurement": "binding", "setting": "[3]", "result": "binds"}]}
